Test results reported in PubChem BioAssay AID1347423 (Functional Genomics Laboratory (NCATS/FGL), 2020).
The whole screen tested about 52,000 sequences, of which about 210 (0.4%) were called active.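 Rule for the calls: active = gene whose silencing raises cell survival under the drug, median off-target-corrected z-score across its silencing RNAs 2 or more; inactive = the rest.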 The list shows a part of the results.

Assay: Resistance to Poly (ADP-Ribose) Polymerase inhibitor: Gene Identification via Genome-wide siRNA Screen
Settings: mouse BRCA2 R2336H ES cells, olaparib, CellTiter-Glo viability; stronger effect = higher value
Summary of the method: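 Mouse BRCA2 R2336H ES cells were reverse-transfected with siRNA (20 nM final), treated at 48 h with 500 nM olaparib, and read by CellTiter-Glo after 72 h. Scores: MAD-based z per siRNA, median per gene, seed off-target correction.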

| Sequence | z-score |
| --- | --- |
| GCCAUGCUCACUGAACUUCTT against 1600031M04Rik | inactive: 1.23 |
| CCACUAUGCUUCUUGGAAUTT against Serpini2 | inactive: -0.623 |
| GGUCAUGGCUGGAUUUCUUTT against Olfr1462 | inactive: -1.5 |
| CCUCCUUUGGACAACGGGUTT against Cyp7a1 | inactive: 0.108 |
| CGAUGUUUUCAUGAACGACTT against 0610012D17Rik | inactive: 0.421 |
| CCUUCCUGUUGUCAUGAGATT against Tssc1 | inactive: 0.354 |
| GCCCUCGGAUAGAAUGGAUTT against Gm631 | inactive: 0.242 |
| GGAACUCACCUACCAAGAATT against 5530600A18Rik | inactive: -2.8 |
| GCACAAGGUGUUUCAUUAATT against 5430416O09Rik | inactive: -0.849 |
| GGCAGAGCUUGGAGUAUCUTT against Gtpbp4 | inactive: -2.37 |
| GGAUUAUCUUACAAUGUGGTT against Adam10 | inactive: 0.459 |
| GGAGAUUCUAGAUCAUCUATT against Phldb2 | inactive: 1.72 |
| GGGAUGUGAGCUUGGACUUTT against Phox2b | inactive: -0.891 |
| GGAUGAUCGCUUUUGCUAUTT against Drd1ip | inactive: 0.327 |
| GGCAUCUCUUCCAAGUUGGTT against 2410129H14Rik | inactive: 0.351 |
| AUGCAUGAAAUCAUGUUGATT against Ndufa4 | inactive: 0.492 |
| CGAUUUAAGGAUUUUUACCTT against Tes3 | inactive: -0.423 |
| GGCCAAAGGCUCAGAUGAUTT against Hic2 | inactive: -2.59 |
| CGAGAUCAUCUCAAAUAUCTT against Man2a1 | inactive: 0.266 |
| GGACAGGAAUGCAUUUGUCTT against Cyfip2 | inactive: 0.43 |
| GUUCUUGGCAACAUGGCAGTT against Olfr551 | inactive: -1.3 |
| GCUGUUAAGUAAUGACAGATT against Chst7 | inactive: -0.204 |
| GCACAAUCCCAACUUGGAATT against Retnlg | inactive: 1.34 |

| Sequence | z-score |
| --- | --- |
| CCAUCUACACUUCCCUGCATT against BC048403 | inactive: -1.64 |
| GGAAAGGUAAUGCAUCACATT against Rev3l | inactive: -1.42 |
| GCUGUCUGAUUGGGUCCUUTT against Lag3 | inactive: 0.168 |
| CGGUCUAAAUUUCCGGUCATT against NE | inactive: 1.51 |
| GGGUUUUCUCAUUGUCUUUTT against Rce1 | inactive: -0.507 |
| GGUGACACUCAAGGUGUCATT against AA691260 | inactive: 1.23 |
| AUCAGUGGGUUAAAUAAAGTT against Cox11 | inactive: -0.169 |
| GGACAAACAGAACACAGUGTT against Ngfr | inactive: -0.618 |
| CCCACAAGUGUAAAGAUCGTT against Ebag9 | inactive: -0.282 |
| GCAUCUCGUGAUAUAUAAGTT against Nudt9 | inactive: 0.924 |
| GGUGAUGUUCCCUGUUUUCTT against Gstt1 | inactive: 1.1 |
| CCGUAGUGGUAAACCUGGATT against Gcg | inactive: 1.34 |
| GCGGAUCUGCUUUUUGCACTT against Ttc14 | inactive: -0.346 |
| GGUCAAGGUCAAAUAAAAGTT against Lgals2 | inactive: 0.525 |
| GGACCUCCCACAGUGUUAUTT against Enpp2 | inactive: 0.697 |
| CGUGUAUCGCAGUUUGUCCTT against E2f3 | inactive: 0.452 |
| GGAGCUGGAAGAGGUGUUUTT against 5730593F17Rik | inactive: -1.16 |
| GCACGCCUUACUGGAAUCCTT against Bub1 | inactive: 2.17 |
| GCAGUGUCGCAUUACAUCGTT against AU024582 | inactive: 1.64 |
| GGUGUUUGACACUCAAGCATT against V1rg6 | inactive: 1.69 |
| GCCACACACGAUUUCAAGUTT against Hist1h3a | inactive: 0.669 |
| GGUAUGCGAUCAAACUUUUTT against Ttr | inactive: 0.647 |
| GGACACUUGCUCGACUUCATT against 4732427B05 | inactive: -3.46 |

Quoted from the listing.
Under z-score, GGACCUCCCACAGUGUUAUTT against Enpp2 has inactive: 0.697
Under z-score, CCCACAAGUGUAAAGAUCGTT against Ebag9 has inactive: -0.282
Under z-score, GGUCAAGGUCAAAUAAAAGTT against Lgals2 has inactive: 0.525
Under z-score, GGUGACACUCAAGGUGUCATT against AA691260 has inactive: 1.23
Under z-score, GGUGAUGUUCCCUGUUUUCTT against Gstt1 has inactive: 1.1
Under z-score, CCGUAGUGGUAAACCUGGATT against Gcg has inactive: 1.34

Remaining list, next part.

| Sequence | z-score |
| --- | --- |
| GGAACUGGAUGAAUCAAAUTT against Ehbp1 | inactive: -0.00833 |
| GGCUGUCUCCGAACACUAUTT against 1300006C06Rik | inactive: 0.277 |
| GGAUGUCUUUCCUACACGUTT against Mobkl2c | inactive: 0.014 |
| GGGAAAUUUACAGAAAGUGTT against Igtp | inactive: 1.05 |
| UGUGCCCUAUAGAACCUGUTT against Krtap13-1 | inactive: 0.606 |
| GGGCAGGUUGUCUUUCUACTT against Ppap2a | inactive: -0.428 |
| GGAGCUAAAAACUUGUAUATT against Rpl23 | inactive: -3.35 |
| CGACUCCCACCUUUAGGAGTT against Nkx2-5 | inactive: -0.695 |
| CGAAACACCAGAUGUAUUCTT against Gck | inactive: 1.57 |
| UUGCUAUAAGGGCAUGGAATT against LOC434448 | inactive: 1.65 |
| GGUUUUGGGAAGUUAUUAATT against D16Bwg1547e | inactive: 0.245 |
| GGUAGAGGCAGUCAUGACATT against Abcg5 | inactive: -0.172 |
| GGAAGAGAAGAAGGAACUUTT against Ada | inactive: 2.4 |
| GGUAUCCUGUCAUCAUGAGTT against Olfr272 | inactive: 1.46 |
| GCAAAUACCUGUUGAAUAATT against Timd4 | inactive: -0.577 |
| GGAAUACAGAUUUUUCAGATT against 4930488L10Rik | inactive: 0.839 |
| GCGAAAAGUCCACCACAUATT against Cyp51 | inactive: -0.714 |
| GGAAACGAUAGCCAAUAUUTT against 1700010M22Rik | inactive: -0.968 |
| GGCUGUCAAGAAGCACAUCTT against Inhba | inactive: -0.00508 |
| GGAAUAAACCUUGUGCAGUTT against Polh | inactive: 0.439 |
| GCUUGUUUGUUAGAGCUAGTT against Gad1 | inactive: 0.191 |
